Results from PMC8998557, “A Novel Family of Winged-Helix Single-Stranded DNA-Binding Proteins from Archaea”.
Results are given in words; binding and its absence hold for the method and conditions named.

Biological target: Sul7s from Sulfolobus islandicus Rey15A (SiRe_1983) (Sulfolobus islandicus Rey15A) (UniProt F0NBY5)
Experiment: AUC; sedimentation velocity, absorbance at 280 nm, 20 °C, 50,000 rpm, 50 mM Tris-HCl pH 6.8, 50 mM NaCl; both purified

B1: Sul7s from Sulfolobus islandicus Rey15A (SiRe_1983) (protein, UniProt F0NBY5 1-59)
chain: MEDVKQSVEKIIKDREWVTFNDLLKYIPYPAPEVYDALSQLIKENKVGRRGRYFYYIKR
binding: no binding
